In PMC4503993:
These are yes or no findings as the source states them, for the method shown. Binding seen in cells or lysates may run through a third protein. Some results given as binding are weak or reduced against the parent protein; the word gives no strength. For some assays here: Tags and fused reporters may be left off the sequences shown.

Sequences of proteins named here, by UniProt entry; tags and fusion partners are left off.
UniProt Q9JMB7: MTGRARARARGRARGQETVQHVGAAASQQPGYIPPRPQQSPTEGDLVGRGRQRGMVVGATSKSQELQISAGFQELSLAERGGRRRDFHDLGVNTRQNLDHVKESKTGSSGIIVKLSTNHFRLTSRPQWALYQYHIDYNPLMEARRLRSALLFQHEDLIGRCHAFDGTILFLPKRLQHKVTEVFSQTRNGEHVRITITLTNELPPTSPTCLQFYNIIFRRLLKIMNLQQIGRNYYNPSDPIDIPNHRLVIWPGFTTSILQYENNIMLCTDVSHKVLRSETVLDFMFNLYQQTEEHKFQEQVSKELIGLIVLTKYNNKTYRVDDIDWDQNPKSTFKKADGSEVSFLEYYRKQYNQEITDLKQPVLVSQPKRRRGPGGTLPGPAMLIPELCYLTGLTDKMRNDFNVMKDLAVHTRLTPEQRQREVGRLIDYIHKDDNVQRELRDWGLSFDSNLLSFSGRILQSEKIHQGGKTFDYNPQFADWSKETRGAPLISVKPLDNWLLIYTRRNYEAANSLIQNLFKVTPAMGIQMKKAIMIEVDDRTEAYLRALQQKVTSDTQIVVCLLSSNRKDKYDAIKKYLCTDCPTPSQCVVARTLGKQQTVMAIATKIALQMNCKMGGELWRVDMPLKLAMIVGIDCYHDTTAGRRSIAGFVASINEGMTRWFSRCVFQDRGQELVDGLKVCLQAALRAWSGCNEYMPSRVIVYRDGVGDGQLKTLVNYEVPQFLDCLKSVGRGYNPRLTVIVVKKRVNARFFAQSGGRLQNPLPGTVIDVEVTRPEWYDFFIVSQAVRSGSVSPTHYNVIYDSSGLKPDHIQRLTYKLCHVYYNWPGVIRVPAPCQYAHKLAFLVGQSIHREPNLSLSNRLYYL

T1: GST-KIF17b-TC2 (the 991-1038 amino acids of KIF17b) (mouse) (UniProt Q99PW8)
T1 sequence: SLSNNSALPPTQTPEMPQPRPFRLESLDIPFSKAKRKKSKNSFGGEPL

T2: FLAG-CaMKIV-FL (the full length of CaMKIV) (mouse) (UniProt P08414)
T2 sequence: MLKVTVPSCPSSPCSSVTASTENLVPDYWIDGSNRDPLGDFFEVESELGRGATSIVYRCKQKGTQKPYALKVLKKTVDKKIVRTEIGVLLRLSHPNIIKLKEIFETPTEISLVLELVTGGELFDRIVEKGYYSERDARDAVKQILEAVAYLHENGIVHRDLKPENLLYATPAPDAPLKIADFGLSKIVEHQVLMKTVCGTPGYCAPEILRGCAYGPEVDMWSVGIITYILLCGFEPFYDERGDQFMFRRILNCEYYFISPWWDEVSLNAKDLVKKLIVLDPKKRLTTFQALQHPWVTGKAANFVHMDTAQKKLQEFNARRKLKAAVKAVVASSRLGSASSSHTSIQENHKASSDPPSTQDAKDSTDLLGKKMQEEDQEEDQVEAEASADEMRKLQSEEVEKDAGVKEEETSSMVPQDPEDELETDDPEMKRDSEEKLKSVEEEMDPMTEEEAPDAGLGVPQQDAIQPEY

T3: GFP-MVH (mouse VASA homologue) (mouse) (UniProt Q61496)
T3 sequence: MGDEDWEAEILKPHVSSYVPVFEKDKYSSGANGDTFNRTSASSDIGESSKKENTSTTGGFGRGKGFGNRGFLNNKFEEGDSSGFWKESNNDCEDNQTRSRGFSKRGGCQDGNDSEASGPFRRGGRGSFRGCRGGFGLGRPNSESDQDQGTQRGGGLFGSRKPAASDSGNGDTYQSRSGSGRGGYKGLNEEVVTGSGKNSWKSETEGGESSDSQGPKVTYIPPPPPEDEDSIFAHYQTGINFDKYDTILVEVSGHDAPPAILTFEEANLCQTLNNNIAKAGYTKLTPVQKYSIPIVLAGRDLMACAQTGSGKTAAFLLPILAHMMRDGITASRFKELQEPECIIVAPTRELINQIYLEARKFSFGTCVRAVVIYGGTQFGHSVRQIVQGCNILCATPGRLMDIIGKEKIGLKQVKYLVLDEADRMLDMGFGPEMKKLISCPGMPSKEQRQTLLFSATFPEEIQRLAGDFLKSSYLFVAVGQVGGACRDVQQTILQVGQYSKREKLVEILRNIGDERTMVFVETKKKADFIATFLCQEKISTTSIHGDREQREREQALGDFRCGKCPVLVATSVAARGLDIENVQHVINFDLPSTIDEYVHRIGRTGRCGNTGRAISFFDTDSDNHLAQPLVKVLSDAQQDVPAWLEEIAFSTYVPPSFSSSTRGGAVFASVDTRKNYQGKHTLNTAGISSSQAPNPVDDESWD

T4: FLAG-KIF17b-FL (the full length of KIF17b) (mouse) (UniProt Q99PW8)
T4 sequence: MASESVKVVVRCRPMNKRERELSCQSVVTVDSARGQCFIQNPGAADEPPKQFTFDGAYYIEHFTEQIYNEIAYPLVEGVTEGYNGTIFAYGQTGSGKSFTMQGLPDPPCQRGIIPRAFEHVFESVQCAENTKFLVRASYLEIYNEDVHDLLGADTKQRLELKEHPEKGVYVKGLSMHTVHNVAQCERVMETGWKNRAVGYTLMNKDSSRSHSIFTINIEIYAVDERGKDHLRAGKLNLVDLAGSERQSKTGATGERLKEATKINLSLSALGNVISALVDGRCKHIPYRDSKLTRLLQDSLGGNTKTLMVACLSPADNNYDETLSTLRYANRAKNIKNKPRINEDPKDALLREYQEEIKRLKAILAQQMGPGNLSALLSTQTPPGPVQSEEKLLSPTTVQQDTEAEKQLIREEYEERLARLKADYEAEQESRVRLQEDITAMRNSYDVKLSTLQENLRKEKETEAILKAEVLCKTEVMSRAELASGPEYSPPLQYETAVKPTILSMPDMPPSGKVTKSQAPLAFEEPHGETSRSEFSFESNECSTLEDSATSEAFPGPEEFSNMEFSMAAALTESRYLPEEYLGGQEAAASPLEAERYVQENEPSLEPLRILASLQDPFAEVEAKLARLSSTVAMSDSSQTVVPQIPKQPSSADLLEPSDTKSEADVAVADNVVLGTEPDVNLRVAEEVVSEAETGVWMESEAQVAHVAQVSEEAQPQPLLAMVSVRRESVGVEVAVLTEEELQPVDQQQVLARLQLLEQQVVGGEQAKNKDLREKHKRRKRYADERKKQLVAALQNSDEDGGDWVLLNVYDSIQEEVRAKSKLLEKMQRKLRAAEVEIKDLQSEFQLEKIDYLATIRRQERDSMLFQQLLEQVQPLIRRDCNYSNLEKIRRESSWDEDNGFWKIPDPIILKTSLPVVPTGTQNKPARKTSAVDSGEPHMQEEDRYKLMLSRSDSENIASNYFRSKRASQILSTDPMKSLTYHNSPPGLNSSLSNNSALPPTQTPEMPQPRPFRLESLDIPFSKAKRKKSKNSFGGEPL


How the values were obtained:
[1] = target: T1, GST-KIF17b-TC2 (the 991-1038 amino acids of KIF17b) (mouse); assay: pull-down; purified GST-fusions of KIF17b truncations bound to glutathione-Sepharose beads, incubated with lysates of HEK293T cells transfected with GFP-MVH or GFP-MIWI; blotted with anti-GFP antibody; in Fig. 4C precipitates treated with RNase A at 37 °C for 1 min; only the target purified
[2] = target: T2, FLAG-CaMKIV-FL (the full length of CaMKIV) (mouse); assay: co-IP; HEK293T cells co-transfected with FLAG- and GFP-tagged constructs; lysates in TNE buffer (10 mM Tris-HCl pH 7.5, 150 mM NaCl, 1 mM EDTA, 1% Nonidet P-40); precipitated with anti-FLAG or anti-GFP antibody overnight at 4 °C; in Fig. 6 with or without co-expressed CaMKIV-CA
[3] = target: GFP-MIWI (mouse homologue of PIWI, PIWIL1) (mouse) (UniProt Q9JMB7); assay: as above
[4] = target: T3, GFP-MVH (mouse VASA homologue) (mouse); assay: as above
[5] = target: MIWI (endogenous, mouse testes) (mouse (endogenous in testes)) (UniProt Q9JMB7); assay: co-IP; mouse testes lysate in TNE buffer precipitated with anti-MIWI antibody, blotted with anti-CaMKIV antibody; anti-GFP antibody as negative control
[6] = target: T4, FLAG-KIF17b-FL (the full length of KIF17b) (mouse); assay: co-IP; HEK293T cells co-transfected with FLAG- and GFP-tagged constructs; lysates in TNE buffer (10 mM Tris-HCl pH 7.5, 150 mM NaCl, 1 mM EDTA, 1% Nonidet P-40); precipitated with anti-FLAG or anti-GFP antibody overnight at 4 °C; in Fig. 6 with or without co-expressed CaMKIV-CA

Molecule	binding [1]	binding [2]	other results
GFP-MIWI (mouse homologue of PIWI, PIWIL1) (from UniProt Q9JMB7 1-862)	binds	binds	
GFP-MVH (mouse VASA homologue) (protein, UniProt Q61496 1-702) MGDEDWEAEILKPHVSSYVPVFEKDKYSSGANGDTFNRTSASSDIGESSKKENTSTTGGFGRGKGFGNRGFLNNKFEEGDSSGFWKESNNDCEDNQTRSRGFSKRGGCQDGNDSEASGPFRRGGRGSFRGCRGGFGLGRPNSESDQDQGTQRGGGLFGSRKPAASDSGNGDTYQSRSGSGRGGYKGLNEEVVTGSGKNSWKSETEGGESSDSQGPKVTYIPPPPPEDEDSIFAHYQTGINFDKYDTILVEVSGHDAPPAILTFEEANLCQTLNNNIAKAGYTKLTPVQKYSIPIVLAGRDLMACAQTGSGKTAAFLLPILAHMMRDGITASRFKELQEPECIIVAPTRELINQIYLEARKFSFGTCVRAVVIYGGTQFGHSVRQIVQGCNILCATPGRLMDIIGKEKIGLKQVKYLVLDEADRMLDMGFGPEMKKLISCPGMPSKEQRQTLLFSATFPEEIQRLAGDFLKSSYLFVAVGQVGGACRDVQQTILQVGQYSKREKLVEILRNIGDERTMVFVETKKKADFIATFLCQEKISTTSIHGDREQREREQALGDFRCGKCPVLVATSVAARGLDIENVQHVINFDLPSTIDEYVHRIGRTGRCGNTGRAISFFDTDSDNHLAQPLVKVLSDAQQDVPAWLEEIAFSTYVPPSFSSSTRGGAVFASVDTRKNYQGKHTLNTAGISSSQAPNPVDDESWD	binds	binds	
FLAG-KIF17b-FL (the full length of KIF17b) (protein, UniProt Q99PW8 1-1038) MASESVKVVVRCRPMNKRERELSCQSVVTVDSARGQCFIQNPGAADEPPKQFTFDGAYYIEHFTEQIYNEIAYPLVEGVTEGYNGTIFAYGQTGSGKSFTMQGLPDPPCQRGIIPRAFEHVFESVQCAENTKFLVRASYLEIYNEDVHDLLGADTKQRLELKEHPEKGVYVKGLSMHTVHNVAQCERVMETGWKNRAVGYTLMNKDSSRSHSIFTINIEIYAVDERGKDHLRAGKLNLVDLAGSERQSKTGATGERLKEATKINLSLSALGNVISALVDGRCKHIPYRDSKLTRLLQDSLGGNTKTLMVACLSPADNNYDETLSTLRYANRAKNIKNKPRINEDPKDALLREYQEEIKRLKAILAQQMGPGNLSALLSTQTPPGPVQSEEKLLSPTTVQQDTEAEKQLIREEYEERLARLKADYEAEQESRVRLQEDITAMRNSYDVKLSTLQENLRKEKETEAILKAEVLCKTEVMSRAELASGPEYSPPLQYETAVKPTILSMPDMPPSGKVTKSQAPLAFEEPHGETSRSEFSFESNECSTLEDSATSEAFPGPEEFSNMEFSMAAALTESRYLPEEYLGGQEAAASPLEAERYVQENEPSLEPLRILASLQDPFAEVEAKLARLSSTVAMSDSSQTVVPQIPKQPSSADLLEPSDTKSEADVAVADNVVLGTEPDVNLRVAEEVVSEAETGVWMESEAQVAHVAQVSEEAQPQPLLAMVSVRRESVGVEVAVLTEEELQPVDQQQVLARLQLLEQQVVGGEQAKNKDLREKHKRRKRYADERKKQLVAALQNSDEDGGDWVLLNVYDSIQEEVRAKSKLLEKMQRKLRAAEVEIKDLQSEFQLEKIDYLATIRRQERDSMLFQQLLEQVQPLIRRDCNYSNLEKIRRESSWDEDNGFWKIPDPIILKTSLPVVPTGTQNKPARKTSAVDSGEPHMQEEDRYKLMLSRSDSENIASNYFRSKRASQILSTDPMKSLTYHNSPPGLNSSLSNNSALPPTQTPEMPQPRPFRLESLDIPFSKAKRKKSKNSFGGEPL			binding [3]: binds; binding [4]: binds
CaMKIV (endogenous, mouse testes) (enzyme, UniProt P08414 1-469) MLKVTVPSCPSSPCSSVTASTENLVPDYWIDGSNRDPLGDFFEVESELGRGATSIVYRCKQKGTQKPYALKVLKKTVDKKIVRTEIGVLLRLSHPNIIKLKEIFETPTEISLVLELVTGGELFDRIVEKGYYSERDARDAVKQILEAVAYLHENGIVHRDLKPENLLYATPAPDAPLKIADFGLSKIVEHQVLMKTVCGTPGYCAPEILRGCAYGPEVDMWSVGIITYILLCGFEPFYDERGDQFMFRRILNCEYYFISPWWDEVSLNAKDLVKKLIVLDPKKRLTTFQALQHPWVTGKAANFVHMDTAQKKLQEFNARRKLKAAVKAVVASSRLGSASSSHTSIQENHKASSDPPSTQDAKDSTDLLGKKMQEEDQEEDQVEAEASADEMRKLQSEEVEKDAGVKEEETSSMVPQDPEDELETDDPEMKRDSEEKLKSVEEEMDPMTEEEAPDAGLGVPQQDAIQPEY			binding [5]: binds
GFP-CaMKIV-FL (enzyme, UniProt P08414 1-469) MLKVTVPSCPSSPCSSVTASTENLVPDYWIDGSNRDPLGDFFEVESELGRGATSIVYRCKQKGTQKPYALKVLKKTVDKKIVRTEIGVLLRLSHPNIIKLKEIFETPTEISLVLELVTGGELFDRIVEKGYYSERDARDAVKQILEAVAYLHENGIVHRDLKPENLLYATPAPDAPLKIADFGLSKIVEHQVLMKTVCGTPGYCAPEILRGCAYGPEVDMWSVGIITYILLCGFEPFYDERGDQFMFRRILNCEYYFISPWWDEVSLNAKDLVKKLIVLDPKKRLTTFQALQHPWVTGKAANFVHMDTAQKKLQEFNARRKLKAAVKAVVASSRLGSASSSHTSIQENHKASSDPPSTQDAKDSTDLLGKKMQEEDQEEDQVEAEASADEMRKLQSEEVEKDAGVKEEETSSMVPQDPEDELETDDPEMKRDSEEKLKSVEEEMDPMTEEEAPDAGLGVPQQDAIQPEY			binding [6]: binds
